This is an account of results in PMC10336126.

Protein sequences, listed by entry. Tags and fused reporters are not part of them.
UniProt P32598: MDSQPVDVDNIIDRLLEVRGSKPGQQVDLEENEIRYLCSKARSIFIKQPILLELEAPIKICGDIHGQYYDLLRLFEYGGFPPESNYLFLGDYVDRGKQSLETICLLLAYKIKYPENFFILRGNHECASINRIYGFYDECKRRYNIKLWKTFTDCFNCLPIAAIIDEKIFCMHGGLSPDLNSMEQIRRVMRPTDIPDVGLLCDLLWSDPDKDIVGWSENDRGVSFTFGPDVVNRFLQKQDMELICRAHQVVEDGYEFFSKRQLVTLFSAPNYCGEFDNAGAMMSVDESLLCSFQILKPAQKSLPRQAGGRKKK
UniProt P29539: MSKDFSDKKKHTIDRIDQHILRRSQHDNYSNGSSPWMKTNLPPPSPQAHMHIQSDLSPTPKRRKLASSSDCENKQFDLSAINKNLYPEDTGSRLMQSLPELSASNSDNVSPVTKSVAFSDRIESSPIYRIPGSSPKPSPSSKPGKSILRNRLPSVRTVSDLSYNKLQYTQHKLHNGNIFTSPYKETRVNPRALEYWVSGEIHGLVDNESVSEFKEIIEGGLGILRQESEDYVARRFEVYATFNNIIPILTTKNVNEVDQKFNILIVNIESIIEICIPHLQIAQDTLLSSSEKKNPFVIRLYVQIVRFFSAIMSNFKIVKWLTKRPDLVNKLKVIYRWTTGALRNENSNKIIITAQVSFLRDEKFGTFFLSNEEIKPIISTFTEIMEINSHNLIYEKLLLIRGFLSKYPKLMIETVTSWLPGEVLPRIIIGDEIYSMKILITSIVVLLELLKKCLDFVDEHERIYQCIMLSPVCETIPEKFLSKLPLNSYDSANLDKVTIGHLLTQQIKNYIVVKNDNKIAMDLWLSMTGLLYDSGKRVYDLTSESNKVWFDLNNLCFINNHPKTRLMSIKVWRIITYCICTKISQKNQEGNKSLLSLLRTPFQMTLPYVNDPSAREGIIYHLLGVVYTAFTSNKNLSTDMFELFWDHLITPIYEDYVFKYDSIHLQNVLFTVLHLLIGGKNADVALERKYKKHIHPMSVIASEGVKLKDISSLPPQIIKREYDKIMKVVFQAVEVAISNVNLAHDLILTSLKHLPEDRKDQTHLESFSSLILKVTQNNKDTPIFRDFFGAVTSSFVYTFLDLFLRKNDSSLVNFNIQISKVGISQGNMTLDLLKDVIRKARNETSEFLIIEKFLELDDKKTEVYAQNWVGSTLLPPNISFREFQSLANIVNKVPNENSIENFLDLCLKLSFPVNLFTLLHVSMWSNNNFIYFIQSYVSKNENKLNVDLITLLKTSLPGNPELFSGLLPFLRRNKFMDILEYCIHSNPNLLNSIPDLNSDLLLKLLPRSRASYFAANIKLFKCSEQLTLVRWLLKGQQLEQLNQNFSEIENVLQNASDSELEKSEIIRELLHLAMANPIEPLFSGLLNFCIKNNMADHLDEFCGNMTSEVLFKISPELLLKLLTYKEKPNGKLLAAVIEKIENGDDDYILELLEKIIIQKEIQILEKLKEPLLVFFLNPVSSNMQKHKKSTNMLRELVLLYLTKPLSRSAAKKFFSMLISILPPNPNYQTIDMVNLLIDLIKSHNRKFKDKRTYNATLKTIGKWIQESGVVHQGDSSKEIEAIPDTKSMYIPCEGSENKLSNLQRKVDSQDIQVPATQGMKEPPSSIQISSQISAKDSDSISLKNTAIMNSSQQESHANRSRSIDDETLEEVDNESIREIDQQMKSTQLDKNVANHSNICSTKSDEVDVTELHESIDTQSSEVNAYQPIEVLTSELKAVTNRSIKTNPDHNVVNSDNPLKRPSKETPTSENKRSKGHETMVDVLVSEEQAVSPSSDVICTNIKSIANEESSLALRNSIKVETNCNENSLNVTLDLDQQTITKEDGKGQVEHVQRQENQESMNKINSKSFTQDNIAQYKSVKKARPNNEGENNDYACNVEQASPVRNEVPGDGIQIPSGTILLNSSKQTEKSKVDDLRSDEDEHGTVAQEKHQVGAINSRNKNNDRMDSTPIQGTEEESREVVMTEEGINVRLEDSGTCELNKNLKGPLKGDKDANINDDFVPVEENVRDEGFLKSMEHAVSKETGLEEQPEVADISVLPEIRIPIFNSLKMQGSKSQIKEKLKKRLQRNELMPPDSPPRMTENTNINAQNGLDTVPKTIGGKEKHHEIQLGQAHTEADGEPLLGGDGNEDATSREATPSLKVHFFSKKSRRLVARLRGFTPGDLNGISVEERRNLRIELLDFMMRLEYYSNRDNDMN
UniProt Q00416: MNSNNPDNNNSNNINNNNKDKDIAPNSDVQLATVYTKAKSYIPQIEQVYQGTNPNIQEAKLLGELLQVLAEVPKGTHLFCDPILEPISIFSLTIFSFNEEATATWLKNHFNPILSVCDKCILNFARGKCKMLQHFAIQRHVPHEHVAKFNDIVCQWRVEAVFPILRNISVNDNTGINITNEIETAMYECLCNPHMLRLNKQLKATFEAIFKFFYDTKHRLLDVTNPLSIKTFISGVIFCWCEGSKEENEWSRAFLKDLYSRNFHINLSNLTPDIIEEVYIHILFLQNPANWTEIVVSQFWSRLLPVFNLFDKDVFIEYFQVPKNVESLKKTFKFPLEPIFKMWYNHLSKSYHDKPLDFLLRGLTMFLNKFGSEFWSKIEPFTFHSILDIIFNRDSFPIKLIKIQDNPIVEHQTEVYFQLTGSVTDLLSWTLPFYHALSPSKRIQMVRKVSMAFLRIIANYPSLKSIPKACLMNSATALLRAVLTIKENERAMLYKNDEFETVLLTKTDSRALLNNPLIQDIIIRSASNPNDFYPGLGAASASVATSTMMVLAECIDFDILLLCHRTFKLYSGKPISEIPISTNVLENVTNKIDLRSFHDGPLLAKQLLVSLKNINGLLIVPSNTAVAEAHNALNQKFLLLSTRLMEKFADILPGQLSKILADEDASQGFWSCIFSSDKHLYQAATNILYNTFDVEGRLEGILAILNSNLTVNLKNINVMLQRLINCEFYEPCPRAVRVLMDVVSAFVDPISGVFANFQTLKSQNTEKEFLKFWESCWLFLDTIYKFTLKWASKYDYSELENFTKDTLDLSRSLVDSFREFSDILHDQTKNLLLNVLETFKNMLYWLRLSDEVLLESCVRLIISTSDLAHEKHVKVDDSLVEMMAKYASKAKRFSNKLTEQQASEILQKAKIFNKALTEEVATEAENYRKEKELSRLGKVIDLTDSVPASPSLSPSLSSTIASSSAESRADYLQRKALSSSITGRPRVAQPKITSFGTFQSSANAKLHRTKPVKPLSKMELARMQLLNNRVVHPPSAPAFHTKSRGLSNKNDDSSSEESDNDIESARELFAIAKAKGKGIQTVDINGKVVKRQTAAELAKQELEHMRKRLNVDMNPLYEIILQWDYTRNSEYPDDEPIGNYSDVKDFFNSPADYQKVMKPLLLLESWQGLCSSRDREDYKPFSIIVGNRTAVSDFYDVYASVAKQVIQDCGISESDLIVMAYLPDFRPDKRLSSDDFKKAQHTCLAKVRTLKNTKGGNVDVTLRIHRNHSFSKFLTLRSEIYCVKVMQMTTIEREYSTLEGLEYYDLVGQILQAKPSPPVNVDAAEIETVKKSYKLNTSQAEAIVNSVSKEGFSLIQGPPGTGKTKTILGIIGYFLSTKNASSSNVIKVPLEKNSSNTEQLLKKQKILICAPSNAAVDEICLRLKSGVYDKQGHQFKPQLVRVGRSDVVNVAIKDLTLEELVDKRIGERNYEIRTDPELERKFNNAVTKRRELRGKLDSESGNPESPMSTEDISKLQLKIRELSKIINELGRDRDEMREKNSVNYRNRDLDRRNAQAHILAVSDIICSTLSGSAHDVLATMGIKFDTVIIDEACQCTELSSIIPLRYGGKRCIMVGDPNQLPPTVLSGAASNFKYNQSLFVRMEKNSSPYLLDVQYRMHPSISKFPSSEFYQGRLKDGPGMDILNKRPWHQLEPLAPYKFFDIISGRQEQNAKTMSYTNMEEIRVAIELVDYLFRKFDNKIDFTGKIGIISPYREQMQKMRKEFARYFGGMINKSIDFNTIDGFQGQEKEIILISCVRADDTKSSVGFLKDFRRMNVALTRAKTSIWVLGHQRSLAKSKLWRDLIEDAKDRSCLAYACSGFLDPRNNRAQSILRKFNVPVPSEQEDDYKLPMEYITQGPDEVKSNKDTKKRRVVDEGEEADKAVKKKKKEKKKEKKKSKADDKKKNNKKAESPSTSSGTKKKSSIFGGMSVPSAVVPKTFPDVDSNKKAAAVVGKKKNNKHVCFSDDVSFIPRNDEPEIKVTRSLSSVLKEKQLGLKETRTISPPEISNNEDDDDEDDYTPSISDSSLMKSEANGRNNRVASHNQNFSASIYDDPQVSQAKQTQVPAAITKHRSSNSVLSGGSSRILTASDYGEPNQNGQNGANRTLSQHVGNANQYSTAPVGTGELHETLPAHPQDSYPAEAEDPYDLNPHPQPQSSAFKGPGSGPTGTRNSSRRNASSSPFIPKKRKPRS

Like-named read-outs stand apart in the source and are kept apart here. These are yes or no findings as the source states them, for the method shown. Binding seen in cells or lysates may run through a third protein. Here binding means that the protein was enriched with, or labelled near, the bait; the list need not be complete. For part of these data: Tags and fused reporters may be left off the sequences shown.

In assay [1] the target is Glc7-FLAG, endogenously expressed (budding yeast (endogenous in yeast cells)) (UniProt P32598). In words: affinity purification with mass spectrometry; endogenous Glc7-FLAG immunoprecipitated from yeast lysate with anti-FLAG agarose beads, 4 °C, 4 h; IP buffer 40 mM HEPES pH7.5, 150 mM NaCl, 10% glycerol, 0.1% Tween-20; on-bead trypsin digest, LC-MS.
The target is the same in assay [2]. The assay is described as above. The source holds these as a separate data set.

For the molecule “Rif1 (Rap1-interacting factor 1), endogenously expressed (tag not stated) (from UniProt P29539 1-1916)”, the binding entry in assay [1] is “binds”. As for “Sen1, endogenously expressed (tag not stated) (from UniProt Q00416 1-2231)”, in assay [1], the binding result is recorded as “binds”.

B1: Rap1, endogenously expressed (tag not stated) (protein, UniProt P11938 1-827)
chain: MSSPDDFETAPAEYVDALDPSMVVVDSGSAAVTAPSDSAAEVKANQNEENTGATAAETSEKVDQTEVEKKDDDDTTEVGVTTTTPSIADTAATANIASTSGASVTEPTTDDTAADEKKEQVSGPPLSNMKFYLNRDADAHDSLNDIDQLARLIRANGGEVLDSKPRESKENVFIVSPYNHTNLPTVTPTYIKACCQSNSLLNMENYLVPYDNFREVVDSRLQEESHSNGVDNSNSNSDNKDSIRPKTEIISTNTNGATEDSTSEKVMVDAEQQARLQEQAQLLRQHVSSTASITSGGHNDLVQIEQPQKDTSNNNNSNVNDEDNDLLTQDNNPQTADEGNASFQAQRSMISRGALPSHNKASFTDEEDEFILDVVRKNPTRRTTHTLYDEISHYVPNHTGNSIRHRFRVYLSKRLEYVYEVDKFGKLVRDDDGNLIKTKVLPPSIKRKFSADEDYTLAIAVKKQFYRDLFQIDPDTGRSLITDEDTPTAIARRNMTMDPNHVPGSEPNFAAYRTQSRRGPIAREFFKHFAEEHAAHTENAWRDRFRKFLLAYGIDDYISYYEAEKAQNREPEPMKNLTNRPKRPGVPTPGNYNSAAKRARNYSSQRNVQPTANAASANAAAAAAAAASNSYAIPENELLDEDTMNFISSLKNDLSNISNSLPFEYPHEIAEAIRSDFSNEDIYDNIDPDTISFPPKIATTDLFLPLFFHFGSTRQFMDKLHEVISGDYEPSQAEKLVQDLCDETGIRKNFSTSILTCLSGDLMVFPRYFLNMFKDNVNPPPNVPGIWTHDDDESLKSNDQEQIRKLVKKHGTGRMEMRKRFFEKDLL
As for B1, the binding result in assay [2] was “binds”.
